The other results are listed elsewhere or left out. Most values lie at the level of the controls, where differences are scatter.

The chains behind the UniProt entries cited, without tags or fusion partners. Where a name states a change or a piece, a line headed by the entry shows the natural chain unless it says otherwise.
UniProt O94874: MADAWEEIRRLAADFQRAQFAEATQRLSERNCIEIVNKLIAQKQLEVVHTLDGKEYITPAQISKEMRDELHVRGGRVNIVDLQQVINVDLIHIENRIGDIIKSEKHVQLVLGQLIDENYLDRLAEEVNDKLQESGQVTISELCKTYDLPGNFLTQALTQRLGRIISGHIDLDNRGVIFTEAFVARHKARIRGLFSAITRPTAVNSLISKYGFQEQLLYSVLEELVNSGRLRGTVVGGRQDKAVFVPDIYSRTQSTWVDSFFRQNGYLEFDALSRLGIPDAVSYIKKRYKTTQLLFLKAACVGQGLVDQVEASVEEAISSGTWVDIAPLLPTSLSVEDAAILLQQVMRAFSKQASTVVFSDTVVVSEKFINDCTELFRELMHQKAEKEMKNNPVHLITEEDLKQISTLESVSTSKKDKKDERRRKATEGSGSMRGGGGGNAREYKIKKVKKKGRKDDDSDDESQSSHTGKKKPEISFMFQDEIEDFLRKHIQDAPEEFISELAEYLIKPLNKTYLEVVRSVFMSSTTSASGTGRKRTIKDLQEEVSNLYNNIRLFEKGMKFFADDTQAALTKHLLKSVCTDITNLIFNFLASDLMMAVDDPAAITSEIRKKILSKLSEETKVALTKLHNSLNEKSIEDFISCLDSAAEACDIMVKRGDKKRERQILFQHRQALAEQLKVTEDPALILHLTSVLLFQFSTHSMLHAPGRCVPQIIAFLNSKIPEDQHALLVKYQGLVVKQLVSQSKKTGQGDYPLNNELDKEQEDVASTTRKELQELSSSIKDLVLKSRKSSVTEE
UniProt O95721: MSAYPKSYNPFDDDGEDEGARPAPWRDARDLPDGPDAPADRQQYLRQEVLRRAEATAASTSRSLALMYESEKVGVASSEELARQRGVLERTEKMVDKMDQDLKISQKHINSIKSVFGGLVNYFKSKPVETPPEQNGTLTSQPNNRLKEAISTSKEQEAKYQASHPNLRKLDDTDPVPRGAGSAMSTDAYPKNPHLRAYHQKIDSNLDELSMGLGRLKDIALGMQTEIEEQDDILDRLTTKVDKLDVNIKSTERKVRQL
UniProt O95819: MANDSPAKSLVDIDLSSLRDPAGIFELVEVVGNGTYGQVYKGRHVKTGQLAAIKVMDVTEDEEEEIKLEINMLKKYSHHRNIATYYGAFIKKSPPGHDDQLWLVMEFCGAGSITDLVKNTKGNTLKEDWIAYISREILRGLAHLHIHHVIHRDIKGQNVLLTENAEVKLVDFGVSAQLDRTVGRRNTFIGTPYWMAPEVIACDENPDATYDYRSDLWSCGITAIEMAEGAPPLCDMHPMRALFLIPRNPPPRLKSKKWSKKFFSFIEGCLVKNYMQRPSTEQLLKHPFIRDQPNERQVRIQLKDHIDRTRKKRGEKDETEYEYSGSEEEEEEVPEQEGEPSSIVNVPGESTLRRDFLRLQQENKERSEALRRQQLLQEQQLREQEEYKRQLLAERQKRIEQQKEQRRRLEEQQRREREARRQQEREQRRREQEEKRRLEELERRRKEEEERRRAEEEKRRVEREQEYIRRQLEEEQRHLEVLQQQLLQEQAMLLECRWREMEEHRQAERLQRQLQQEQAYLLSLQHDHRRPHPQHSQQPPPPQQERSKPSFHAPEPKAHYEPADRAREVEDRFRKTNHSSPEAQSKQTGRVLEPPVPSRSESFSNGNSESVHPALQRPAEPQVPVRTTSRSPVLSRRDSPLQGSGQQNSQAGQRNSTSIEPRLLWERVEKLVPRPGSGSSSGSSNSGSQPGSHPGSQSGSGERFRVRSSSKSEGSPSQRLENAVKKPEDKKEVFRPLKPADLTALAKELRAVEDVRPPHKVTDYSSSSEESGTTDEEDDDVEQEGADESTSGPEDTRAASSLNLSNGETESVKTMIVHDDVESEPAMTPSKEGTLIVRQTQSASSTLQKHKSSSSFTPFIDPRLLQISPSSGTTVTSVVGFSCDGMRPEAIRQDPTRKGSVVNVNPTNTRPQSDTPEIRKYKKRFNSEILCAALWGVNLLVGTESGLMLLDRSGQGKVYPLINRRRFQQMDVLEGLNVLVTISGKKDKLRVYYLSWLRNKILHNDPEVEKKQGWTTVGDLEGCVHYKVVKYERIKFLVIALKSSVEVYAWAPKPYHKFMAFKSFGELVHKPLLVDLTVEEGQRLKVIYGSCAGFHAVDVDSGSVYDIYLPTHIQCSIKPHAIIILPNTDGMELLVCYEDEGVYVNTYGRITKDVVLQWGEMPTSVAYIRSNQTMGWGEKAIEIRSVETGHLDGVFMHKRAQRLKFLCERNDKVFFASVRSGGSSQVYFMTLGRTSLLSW
UniProt O95628: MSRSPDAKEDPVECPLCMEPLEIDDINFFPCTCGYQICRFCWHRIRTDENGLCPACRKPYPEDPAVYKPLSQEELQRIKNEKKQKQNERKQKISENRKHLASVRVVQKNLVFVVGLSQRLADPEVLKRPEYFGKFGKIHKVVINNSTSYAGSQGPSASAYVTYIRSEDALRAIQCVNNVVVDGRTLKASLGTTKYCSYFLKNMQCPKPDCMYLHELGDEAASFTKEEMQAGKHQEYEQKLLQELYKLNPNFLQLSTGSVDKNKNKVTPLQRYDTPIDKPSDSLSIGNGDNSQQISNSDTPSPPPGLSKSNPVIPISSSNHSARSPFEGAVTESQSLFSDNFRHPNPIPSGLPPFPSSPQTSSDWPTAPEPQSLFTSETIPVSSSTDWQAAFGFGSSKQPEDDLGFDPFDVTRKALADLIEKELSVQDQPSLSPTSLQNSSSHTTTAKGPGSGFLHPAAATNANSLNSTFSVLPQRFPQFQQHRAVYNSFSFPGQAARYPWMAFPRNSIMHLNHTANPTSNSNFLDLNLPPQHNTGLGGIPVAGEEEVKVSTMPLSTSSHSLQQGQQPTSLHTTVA
UniProt O75791: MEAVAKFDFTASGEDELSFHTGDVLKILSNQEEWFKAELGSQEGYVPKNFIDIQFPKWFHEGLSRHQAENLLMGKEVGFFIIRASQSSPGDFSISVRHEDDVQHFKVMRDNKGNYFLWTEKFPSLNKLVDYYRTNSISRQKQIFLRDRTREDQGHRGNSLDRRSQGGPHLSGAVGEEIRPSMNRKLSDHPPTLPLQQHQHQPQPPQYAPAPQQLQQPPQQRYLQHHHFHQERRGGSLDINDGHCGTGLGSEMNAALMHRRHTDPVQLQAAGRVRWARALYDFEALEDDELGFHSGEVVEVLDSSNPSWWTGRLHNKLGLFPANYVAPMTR
UniProt O94889: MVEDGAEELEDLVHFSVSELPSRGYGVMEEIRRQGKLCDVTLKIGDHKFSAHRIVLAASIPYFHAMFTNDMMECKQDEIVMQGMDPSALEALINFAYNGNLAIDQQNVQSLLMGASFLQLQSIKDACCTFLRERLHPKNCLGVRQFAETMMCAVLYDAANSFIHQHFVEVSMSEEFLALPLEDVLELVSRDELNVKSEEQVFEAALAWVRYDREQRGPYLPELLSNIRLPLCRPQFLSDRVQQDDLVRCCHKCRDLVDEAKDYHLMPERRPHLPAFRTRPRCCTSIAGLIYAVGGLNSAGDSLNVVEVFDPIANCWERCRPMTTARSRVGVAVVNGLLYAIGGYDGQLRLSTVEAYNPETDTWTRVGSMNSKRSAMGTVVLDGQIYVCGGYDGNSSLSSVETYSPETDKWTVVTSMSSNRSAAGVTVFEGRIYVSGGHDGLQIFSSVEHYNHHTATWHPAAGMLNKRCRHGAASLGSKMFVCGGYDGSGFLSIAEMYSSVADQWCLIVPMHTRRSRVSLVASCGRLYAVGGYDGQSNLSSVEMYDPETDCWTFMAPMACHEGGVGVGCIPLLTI
UniProt O95817, whole entry: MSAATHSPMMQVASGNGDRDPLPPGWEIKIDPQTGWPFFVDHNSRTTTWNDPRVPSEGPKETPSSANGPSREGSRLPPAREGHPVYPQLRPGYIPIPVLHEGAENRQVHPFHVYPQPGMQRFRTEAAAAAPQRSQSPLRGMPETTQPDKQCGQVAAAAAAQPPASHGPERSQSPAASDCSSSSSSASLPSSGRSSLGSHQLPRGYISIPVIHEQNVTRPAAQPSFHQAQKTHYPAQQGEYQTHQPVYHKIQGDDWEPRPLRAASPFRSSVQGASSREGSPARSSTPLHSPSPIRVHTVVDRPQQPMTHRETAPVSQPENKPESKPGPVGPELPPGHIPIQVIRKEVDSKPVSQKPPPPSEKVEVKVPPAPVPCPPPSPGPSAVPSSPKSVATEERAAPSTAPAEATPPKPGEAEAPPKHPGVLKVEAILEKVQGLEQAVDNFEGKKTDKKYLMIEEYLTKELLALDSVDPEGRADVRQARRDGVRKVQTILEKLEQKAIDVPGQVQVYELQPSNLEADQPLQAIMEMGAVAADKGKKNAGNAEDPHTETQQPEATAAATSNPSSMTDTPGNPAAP
UniProt O75694: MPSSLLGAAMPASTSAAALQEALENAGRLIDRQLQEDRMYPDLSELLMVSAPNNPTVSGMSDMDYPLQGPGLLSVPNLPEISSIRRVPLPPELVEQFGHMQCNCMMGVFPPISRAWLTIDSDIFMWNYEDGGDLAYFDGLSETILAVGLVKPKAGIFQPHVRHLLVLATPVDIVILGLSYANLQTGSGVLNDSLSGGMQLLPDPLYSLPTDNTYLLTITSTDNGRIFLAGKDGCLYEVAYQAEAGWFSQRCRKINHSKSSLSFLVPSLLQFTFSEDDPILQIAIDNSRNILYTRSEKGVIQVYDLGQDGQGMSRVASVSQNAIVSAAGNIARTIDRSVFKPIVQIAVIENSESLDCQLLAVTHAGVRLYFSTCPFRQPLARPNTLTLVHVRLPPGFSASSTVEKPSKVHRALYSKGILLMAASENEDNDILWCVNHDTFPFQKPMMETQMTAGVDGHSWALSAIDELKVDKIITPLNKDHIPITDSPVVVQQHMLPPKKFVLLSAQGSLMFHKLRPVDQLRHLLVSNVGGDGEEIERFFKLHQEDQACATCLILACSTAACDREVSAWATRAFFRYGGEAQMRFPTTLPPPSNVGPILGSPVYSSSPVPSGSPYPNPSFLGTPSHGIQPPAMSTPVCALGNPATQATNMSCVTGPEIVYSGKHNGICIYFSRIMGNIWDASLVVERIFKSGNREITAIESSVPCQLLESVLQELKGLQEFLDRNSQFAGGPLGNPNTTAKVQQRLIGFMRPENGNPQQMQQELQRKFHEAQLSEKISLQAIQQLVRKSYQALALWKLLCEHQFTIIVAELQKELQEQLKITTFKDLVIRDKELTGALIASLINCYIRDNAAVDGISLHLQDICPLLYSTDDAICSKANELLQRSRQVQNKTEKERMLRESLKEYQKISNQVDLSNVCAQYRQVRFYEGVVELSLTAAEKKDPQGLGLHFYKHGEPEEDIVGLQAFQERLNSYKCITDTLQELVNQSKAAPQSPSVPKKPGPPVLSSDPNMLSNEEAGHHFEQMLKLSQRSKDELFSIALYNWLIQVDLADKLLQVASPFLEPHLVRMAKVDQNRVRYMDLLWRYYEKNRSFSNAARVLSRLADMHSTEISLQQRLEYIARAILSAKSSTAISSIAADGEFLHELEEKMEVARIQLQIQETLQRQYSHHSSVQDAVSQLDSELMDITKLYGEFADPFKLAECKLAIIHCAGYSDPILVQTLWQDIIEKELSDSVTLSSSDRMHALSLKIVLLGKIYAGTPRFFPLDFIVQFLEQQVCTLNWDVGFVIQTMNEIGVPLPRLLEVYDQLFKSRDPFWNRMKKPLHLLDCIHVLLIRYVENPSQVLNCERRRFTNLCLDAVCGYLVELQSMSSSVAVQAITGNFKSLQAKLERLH
UniProt O75880: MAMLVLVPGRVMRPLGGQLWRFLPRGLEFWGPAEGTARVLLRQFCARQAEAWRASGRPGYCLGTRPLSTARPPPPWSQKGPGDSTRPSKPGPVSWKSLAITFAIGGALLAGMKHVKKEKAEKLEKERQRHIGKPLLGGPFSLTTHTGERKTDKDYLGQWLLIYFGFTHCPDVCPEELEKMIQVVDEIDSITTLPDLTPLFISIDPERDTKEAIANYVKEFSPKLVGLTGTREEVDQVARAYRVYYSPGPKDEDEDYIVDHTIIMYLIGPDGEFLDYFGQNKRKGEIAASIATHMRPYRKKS
UniProt O75586: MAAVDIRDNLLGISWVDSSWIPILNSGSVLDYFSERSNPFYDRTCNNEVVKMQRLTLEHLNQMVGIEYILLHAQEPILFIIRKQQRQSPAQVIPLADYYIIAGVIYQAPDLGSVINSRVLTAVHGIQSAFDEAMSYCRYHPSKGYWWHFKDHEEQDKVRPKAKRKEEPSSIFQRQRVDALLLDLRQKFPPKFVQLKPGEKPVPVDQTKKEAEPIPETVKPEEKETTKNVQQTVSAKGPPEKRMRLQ

Compound in this test: Cc1nc(Nc2ncc(C(=O)Nc3c(C)cccc3Cl)s2)cc(N2CCN(CCO)CC2)n1 [dasatinib]
As to the kind of experiment: log2 fold change of tryptic peptide abundance, ligand vs vehicle (limited proteolysis) (log2 ratio); higher = more trypsin-susceptible (destabilized). To be noted: ligand concentration: 5 uM; sample: K562 cleared lysate.
As to “UniProt O94874 (peptide sequence: QISTLESVSTSK, peptide start residue: 403)”, the log2 fold change is 0.625. For “SNAP29 (peptide sequence: MVDKMDQDLK, peptide start residue: 94) (UniProt O95721)” the value was -0.109; for “MAP4K4 (peptide sequence: NYMQRPSTEQLLK, peptide start residue: 273) (UniProt O95819)”, -0.175; for “CNOT4 (peptide sequence: KALADLIEK, peptide start residue: 413) (UniProt O95628)”, -0.25.

As for “GRAP2 (peptide sequence: RSQGGPHLSGAVGEEIRPSMNR, peptide start residue: 163) (UniProt O75791)”, the log2 fold change is -0.188.

Take “KLHL18 (peptide sequence: VQQDDLVR, peptide start residue: 241) (UniProt O94889)”: the log2 fold change was 0.106.

Take “BAG3 (peptide sequence: GYISIPVIHEQNVTR, peptide start residue: 204) (UniProt O95817)”: the log2 fold change was 0.169. For “NUP155 (peptide sequence: KFVLLSAQGSLMFHK, peptide start residue: 499) (UniProt O75694)” the value was -0.597; for “SCO1 (peptide sequence: GPGDSTRPSKPGPVSWK, peptide start residue: 80) (UniProt O75880)”, -0.0594. For “MED6 (peptide sequence: KEAEPIPETVKPEEK, peptide start residue: 209) (UniProt O75586)” the value was 0.194.

Source of the values: the supplement of paper PMC12819154, “High-throughput peptide-centric local stability assay extends protein–ligand identification to membrane proteins, tissues and bacteria” (Nature Structural & Molecular Biology, 2025).
